# Test system: estrogen surface receptor (ESR1)
# Test: Intracellular calcium (fura-2) in human arterial endothelial cells, estrogen compounds
# Type: cell-based
# Settings: read-out: IC50 value; stated with the [Ca^2+]i results, against 17β-estradiol
# Description: Human arterial endothelial cells were purchased from Cell Systems (Eugene, Oregon) and grown at 37° C., 5% CO2 in chamber slides (Nunc Int.) with CS-C medium (Cell Systems) supplemented with 10% fetal calf serum and endothelial growth factor. Intracellular calcium levels were measured by dual emission microfluorimetry using the fluorescent dye fura-2/AM. Cells were loaded with the fluorescent ion indicator as follows. […] Cells were washed twice with PBS and then test drugs were added. […] Experiments were carried out at room temperature in PBS without calcium/magnesium. Receptor antagonists, when used, were administered 2 minutes prior to the respective agonist.
# Intracellular calcium levels in human arterial endothelial cells were monitored as described herein for the mu3 studies.
compound,measurement,value
CC/C(=C(\c1ccccc1)c1ccc(OCCN(C)C)cc1)c1ccccc1 [Tamoxifen],IC50,0.8 nM

# — US6524805B1 (priority 1997, dated 2003)
